Measured values reported in article PMC9600267, “The Antibacterial Type VII Secretion System of Bacillus subtilis: Structure and Interactions of the Pseudokinase YukC/EssB” (mBio, 2022).
These are yes or no findings as the source states them, for the method shown. Binding calls can cover weak binding; strength is not graded here. Sequences can lack the tags named with a protein.

T1: YueB (full length), bacterial two-hybrid fusion (Bacillus subtilis 168) (UniProt O32101)
T1 sequence: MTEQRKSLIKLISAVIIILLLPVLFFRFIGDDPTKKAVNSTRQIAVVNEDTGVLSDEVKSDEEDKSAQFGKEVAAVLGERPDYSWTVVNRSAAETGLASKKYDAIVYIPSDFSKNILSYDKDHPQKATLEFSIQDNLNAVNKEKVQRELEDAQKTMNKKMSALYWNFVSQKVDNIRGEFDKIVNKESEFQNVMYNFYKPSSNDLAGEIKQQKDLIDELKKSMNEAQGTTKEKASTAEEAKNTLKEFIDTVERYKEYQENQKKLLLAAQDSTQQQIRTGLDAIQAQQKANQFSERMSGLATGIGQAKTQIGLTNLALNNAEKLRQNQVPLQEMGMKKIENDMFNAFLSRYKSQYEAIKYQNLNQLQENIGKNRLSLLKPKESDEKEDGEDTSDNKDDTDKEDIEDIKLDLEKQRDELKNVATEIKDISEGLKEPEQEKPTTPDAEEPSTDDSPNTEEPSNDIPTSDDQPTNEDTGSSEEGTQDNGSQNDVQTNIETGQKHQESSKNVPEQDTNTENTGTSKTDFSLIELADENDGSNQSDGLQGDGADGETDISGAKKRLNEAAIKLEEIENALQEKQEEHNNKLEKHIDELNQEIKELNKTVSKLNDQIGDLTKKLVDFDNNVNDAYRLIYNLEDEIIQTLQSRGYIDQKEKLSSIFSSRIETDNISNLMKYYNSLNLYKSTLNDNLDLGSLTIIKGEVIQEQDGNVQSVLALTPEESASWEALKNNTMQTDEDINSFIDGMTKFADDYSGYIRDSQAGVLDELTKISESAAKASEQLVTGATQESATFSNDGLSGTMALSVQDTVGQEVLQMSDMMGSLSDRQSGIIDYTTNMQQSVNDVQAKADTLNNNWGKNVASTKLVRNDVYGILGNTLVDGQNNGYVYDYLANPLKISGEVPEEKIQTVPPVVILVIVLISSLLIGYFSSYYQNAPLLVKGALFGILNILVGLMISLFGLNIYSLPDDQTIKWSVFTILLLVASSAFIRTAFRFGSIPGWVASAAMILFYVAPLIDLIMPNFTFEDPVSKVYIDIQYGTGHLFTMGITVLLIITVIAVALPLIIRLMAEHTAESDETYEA

B1: YukC (full length), bacterial two-hybrid fusion (protein, UniProt P71070 1-451)
chain: MSGEQKSYLENQLEAVAEKTDAGYTFTFQREKIKLLDGLEANVIKDINPFFHKEIDVTDDEVIITIQPPSSYKAFRFMKAKDKKSKWQFAYQLVQAVQQHNLSRLNLIVAPENIVFDKGLTPYFLHYGVKESIPPYERDEERVWQELKAAAALAVDGAFAFEDYLKFNETLTFSAEAKAILDAESYDDLLELIQTHIDELEAKAKTYIHIPRKKWNIQRYIGLGLIVLLVPALIYSMYALFFAQPKHQAIVDSNRAFLNKQYSEVISTLSKYDAESLPESVQYQLATSYVEVENLGSAKTKNIENNLVTLQSDPQHFLYWIDYGRGEYKEAISIGRKLEYNDYIYFALAKYKQQLLSEDTNDEDIQKELDSVNSELEKAQKERQENKQSNSETSLVDTSEEQTQTDEEKQAEEKAAEEKAAAEEKAKKEEQKEKEDEKKETEKKDEKKDDK

Columns and labels:
[1] = target: T1, YueB (full length), bacterial two-hybrid fusion (Bacillus subtilis 168); assay: two-hybrid; bacterial two-hybrid (BACTH) in E. coli BTH101; T25 (pKT25/pKNT25) and T18 (pUT18/pUT18C) fusions; spots on LB with X-Gal and IPTG, 25°C, imaged after 48 h
[2] = target: YueBINT (YueB lacking residues 31 to 817), bacterial two-hybrid fusion (Bacillus subtilis 168) (UniProt O32101); assay: as above

Molecule	binding [1]	binding [2]
YueBINT (YueB lacking residues 31 to 817), bacterial two-hybrid fusion (from UniProt O32101)	binds	–
B1	–	binds
